Experimental data taken from PubChem BioAssay AID2685 (National Center for Advancing Translational Sciences (NCATS), 2010).
This is one part of the list. The main result of the screen is listed elsewhere. These columns were measured beside it and carry no call. Compounds called inactive in the main read-out are mostly missing here. Potencies come from curve fits of mixed quality, noted in brackets.

Experiment: qHTS Assay for Lipid Storage Modulators in Drosophila S3 Cells;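 for cell number change: cells counted by Cell Tracker Red CMTPX staining in the red channel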
Settings: BODIPY lipid droplet fluorescence, 18-24 h; for cell number change: measured here: cell count max response, cells fed with added oleic acid
Outline: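 Drosophila S3 cells loaded with oleic acid (400 uM, as added) and compounds at several concentrations; lipid droplets imaged by 488-nm laser-scanning cytometry, 500–530 nm intensity and object ratio to cell channel. Percent activity normalized to 20 uM Triacsin C.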

[1] = measured here: cell number channel AC50, cells fed with added oleic acid
[2] = measured here: lipid fluorescence (Fed channel) AC50, cells fed with added oleic acid

Question: With `COc1ccc2[nH]cc(C3N4CC5(C)CN3CC(C)(C4)C5=O)c2c1` (stereo not given) as the compound, how does the AC50 [1] read?
Answer: 0.116 µM [falling, full curve, poor fit]

Question: Which results are given for `CCCN(CCO)C1CCN(CCc2ccccc2)CC1`?
Answer: cell number change: -21%; AC50 [2]: 6.51 µM [rising, single point]

Question: With `O=C(CCl)N=c1sccn1Cc1ccc(Cl)cc1Cl` as the compound, how does the cell number change read?
Answer: -12.3%

Question: Which cell number change does the source give for `CCOc1ccccc1C(=O)N1CCCCC1C` (stereo not given) here?
Answer: -5.61%

Question: And the AC50 [2]?
Answer: 23.1 µM [falling, partial curve, poor fit]

Question: What does the source list for `CCOc1cccc2cc(C(=O)NCc3ccc(C)cc3)c(=N)oc12`?
Answer: cell number change: -18.3%; AC50 [2]: 8.91 µM [falling, partial curve, poor fit]

Question: For `Cc1cccc(OCC(=O)Nc2ccc(N3CCN(S(C)(=O)=O)CC3)cc2)c1C`, which cell number change is on record?
Answer: 7.66%

Question: For `O=C(NCc1nc(-c2ccccc2)no1)c1cccs1`, which cell number change is on record?
Answer: -17.3%

Question: What about the AC50 [2] of the same compound?
Answer: 25.9 µM [rising, single point]

Question: What does the source list for `CC(CN1CCN(C)CC1)OC(=O)c1ccccc1Cl` (stereo not given)?
Answer: cell number change: -14.9%; AC50 [2]: 4.11 µM [falling, full curve, poor fit]

Question: With `O=C1c2ccccc2NC2(CCCCC2)N1N=C1CCCCC1` as the compound, how does the cell number change read?
Answer: -2.73%

Question: What about the AC50 [2] of the same compound?
Answer: 29.1 µM [falling, single point]

Question: Which results are given for `Cn1cc(CCC(=O)N2CCCC(C(=O)c3ccc(C(C)(C)C)cc3)C2)cn1` (stereo not given)?
Answer: cell number change: -31%; AC50 [1]: 18.4 µM [falling, partial curve, poor fit]

Question: For `Cn1c(CNC(=O)c2ccc(Cl)cc2)nnc1SCC(=O)NC1CCCC1`, which cell number change is on record?
Answer: -1.32%

Question: What about the AC50 [2] of the same compound?
Answer: 5.62 µM [rising, single point]

Question: With `Cc1ccc(C(=O)NC(C)c2ccccc2)cc1Br` (stereo not given) as the compound, how does the cell number change read?
Answer: -2.66%

Question: Which results are given for `COc1ccc(C(C(=O)NC2CCCC2)N(C(=O)c2ccoc2C)c2cc(C)cc(C)c2)cc1` (stereo not given)?
Answer: cell number change: -2.96%; AC50 [2]: 0.058 µM [falling, full curve, poor fit]

Question: For `O=C(c1cccc(C(F)(F)F)c1)N1CCC(O)(CS(=O)(=O)Cc2ccc(Cl)cc2)CC1`, which AC50 [2] is on record?
Answer: 7.31 µM [falling, single point]

Question: Which cell number change does the source give for `C=CCSc1nc2sc(C)c(C)c2c(=O)n1N` here?
Answer: 37.7%

Question: What about the AC50 [1] of the same compound?
Answer: 11.6 µM [rising, partial curve]

Question: And the AC50 [2]?
Answer: 14.6 µM [rising, partial curve]

Question: What does the source list for `COc1ccc(CCN2C(=O)CC(Cc3ccccc3)C2=O)cc1OC` (stereo not given)?
Answer: cell number change: 36.2%; AC50 [1]: 7.31 µM [rising, partial curve, poor fit]; AC50 [2]: 4.11 µM [rising, full curve, poor fit]

Question: Which cell number change does the source give for `CC(C)Oc1ccc(OCCCN2CCCCCC2)cc1` here?
Answer: 16.9%

Question: With `CC1=CC(=C2C(=O)c3ccccc3C2=O)C=C(C)N1Cc1ccco1` as the compound, how does the cell number change read?
Answer: -16.9%

Question: And the AC50 [2]?
Answer: 29.1 µM [rising, single point]

Question: Which cell number change does the source give for `Cc1ccc(C)c(NS(=O)(=O)c2ccc3c(c2)Cc2cc(S(=O)(=O)Nc4cc(C)ccc4C)ccc2-3)c1` here?
Answer: 8.8%

Question: Which AC50 [1] does the source give for `CC1=CC(C)(C)N(S(=O)(=O)c2ccc(F)cc2)c2ccc(C)cc21` here?
Answer: 6.51 µM [falling, single point]

Question: And the AC50 [2]?
Answer: 6.51 µM [falling, single point]

Question: For `COc1cc(C(=O)N/N=C/c2sc(N3CCOCC3)nc2-c2ccccc2)cc(OC)c1OC`, which cell number change is on record?
Answer: -11.6%

Question: Which AC50 [1] does the source give for `C=CCN(C(=O)CNC(=O)c1cccs1)C(C(=O)NC1CCCCC1)c1cccnc1` (stereo not given) here?
Answer: 4.11 µM [rising, partial curve, poor fit]

Question: With `O=C(N/N=C/c1ccccc1O)c1ccc2c(c1)OCO2` as the compound, how does the cell number change read?
Answer: 0.118%

Question: What about the AC50 [2] of the same compound?
Answer: 29.1 µM [falling, single point]

Question: With `CC(=C/c1ccccc1)/C=N/Nc1nc(N2CCCCC2)nc(N2CCCCC2)n1` as the compound, how does the cell number change read?
Answer: 2.62%

Question: And the AC50 [1]?
Answer: 2.06 µM [falling, single point]

Question: With `CC1CCN(c2ncnc3ccccc23)CC1` as the compound, how does the cell number change read?
Answer: -27.7%

Question: And the AC50 [2]?
Answer: 18.4 µM [falling, partial curve]

Question: Which cell number change does the source give for `CC(=O)Oc1ccc(Nc2ccccc2)cc1` here?
Answer: -8.2%

Question: And the AC50 [2]?
Answer: 1.84 µM [falling, partial curve]

Question: For `Cc1cc(C)n(-c2ccc(Cl)c(C(=O)OCC(N)=O)n2)n1`, which AC50 [1] is on record?
Answer: 0.92 µM [rising, partial curve]

Question: What does the source list for `CCSC1=C(C#N)C(c2cccs2)C(C(=O)OC)=C(C)N1` (stereo not given)?
Answer: cell number change: 17.1%; AC50 [1]: 3.26 µM [rising, single point]; AC50 [2]: 29.1 µM [rising, single point]

Question: With `Cc1noc(NS(=O)(=O)c2ccc(NC(=O)c3ccc(Cl)c(S(=O)(=O)N(C)c4ccccc4)c3)cc2)c1C` as the compound, how does the cell number change read?
Answer: -18.5%

Question: And the AC50 [1]?
Answer: 6.51 µM [falling, single point]

Question: For `CCn1c(CSc2nnc(-c3ccc4c(c3)OCO4)o2)nc2cc(S(=O)(=O)N(C)C)ccc21`, which cell number change is on record?
Answer: -6.41%

Question: What about the AC50 [2] of the same compound?
Answer: 0.58 µM [rising, partial curve]

Question: For `O=c1c2ccccc2ncn1CCCCOc1ccccc1F`, which cell number change is on record?
Answer: -5.28%

Question: What does the source list for `O=C(COc1ccc(Br)cc1)NCCCNC(=O)c1ccncc1`?
Answer: cell number change: 14.4%; AC50 [2]: 35.5 µM [rising, partial curve, poor fit]

Question: With `Cc1ccc(OCCCC(=O)Nc2ccc(S(=O)(=O)N3CCOCC3)cc2)cc1` as the compound, how does the cell number change read?
Answer: -30%

Question: For `O=C(Nc1cc2c(=O)n(-c3ccc(Oc4ccccc4)cc3)ccc2oc1=O)c1ccccc1`, which cell number change is on record?
Answer: 32.9%

Question: And the AC50 [1]?
Answer: 2.31 µM [rising, partial curve, poor fit]

Question: Which cell number change does the source give for `Cc1ccc2nc(SCC(=O)Nc3cc(C(F)(F)F)ccc3N3CCOCC3)[nH]c2c1` here?
Answer: 8.03%

Question: What about the AC50 [2] of the same compound?
Answer: 3.66 µM [rising, single point]

Question: With `CCc1nc(SCC(=O)Nc2cc(C)on2)c2c(C)c(C)sc2n1` as the compound, how does the cell number change read?
Answer: 9.33%

Question: And the AC50 [2]?
Answer: 0.164 µM [rising, full curve, poor fit]

Question: What does the source list for `O=C(Nc1ccc(O)cc1)c1c(O)c2c([nH]c1=O)CCCC2`?
Answer: cell number change: 63.4%; AC50 [2]: 29.1 µM [rising, partial curve]

Question: For `CC(=O)N1CCOc2ccc(S(=O)(=O)N3CCC(C(=O)Nc4ccc(C)c(C)c4)CC3)cc21`, which AC50 [2] is on record?
Answer: 29.1 µM [rising, single point]

Question: Which results are given for `COCCCNC(=O)/C(C#N)=C/c1cccc(NC(=O)c2ccccc2Cl)c1`?
Answer: cell number change: -7.88%; AC50 [2]: 4.11 µM [falling, partial curve]

Question: For `O=C(O)c1ccc(NS(=O)(=O)c2cccc(C(=O)Nc3ccccc3[N+](=O)[O-])c2)cc1`, which cell number change is on record?
Answer: 2.78%

Question: And the AC50 [2]?
Answer: 29.1 µM [falling, single point]

Question: Which results are given for `CC1=CC=CC2=NC(=O)CC(C)(C(=O)N(CC(=O)NC3CCCC3)Cc3ccc(Cl)cc3)N12` (stereo not given)?
Answer: cell number change: 1.28%; AC50 [1]: 0.164 µM [falling, full curve, poor fit]

Question: What does the source list for `CCOC(=O)N1CCN(C(=O)CN2C(=O)CC(C)(C)S(=O)(=O)c3ccccc32)CC1`?
Answer: cell number change: -42.6%; AC50 [1]: 0.146 µM [falling, full curve, poor fit]; AC50 [2]: 3.66 µM [falling, full curve]

Question: Which results are given for `Cc1sc(NC(=O)CN(Cc2ccccc2)C(=O)C(C)C)c(C(N)=O)c1C`?
Answer: cell number change: 21.3%; AC50 [1]: 0.731 µM [falling, single point]; AC50 [2]: 0.58 µM [falling, single point]

Question: For `CCOc1ccc(NC(=O)C(=O)N/N=C\c2ccc(CNS(=O)(=O)c3ccccc3)o2)cc1`, which AC50 [2] is on record?
Answer: 29.1 µM [falling, single point]

Question: With `O=c1cc(CN2CCCCC2)nc(C2CC2)[nH]1` as the compound, how does the cell number change read?
Answer: 153%

Question: For `COc1ccc(C(CNC(=O)c2ccc(OCC3CCCO3)cc2)N2CCOCC2)cc1` (stereo not given), which AC50 [1] is on record?
Answer: 1.84 µM [rising, partial curve]

Question: Which results are given for `CCOC(=O)c1cc(NC(=O)NC2CCCCC2)c(C)nc1C`?
Answer: cell number change: -18.1%; AC50 [2]: 6.51 µM [rising, single point]

Question: Which results are given for `CCOc1ccc2[nH]c(=O)c(CN(CCN3CCOCC3)Cc3nnnn3C(C)(C)CC)cc2c1`?
Answer: cell number change: 9.67%; AC50 [2]: 29.1 µM [rising, single point]

Question: For `COc1ccc(NC(=O)CCOc2ccc(C)cc2)cc1S(=O)(=O)N1CCCCC1`, which cell number change is on record?
Answer: -10%

Question: And the AC50 [2]?
Answer: 1.64 µM [falling, partial curve, poor fit]

Question: Which cell number change does the source give for `NS(=O)(=O)c1ccc(CCNC(=O)c2cccc(S(=O)(=O)N3CCCC3)c2)cc1` here?
Answer: -4.28%

Question: What about the AC50 [2] of the same compound?
Answer: 29.1 µM [falling, single point]

Question: With `Cc1cccc(C)c1OCCNC(=O)CCC(=O)c1ccccc1` as the compound, how does the cell number change read?
Answer: -1.61%

Question: What about the AC50 [2] of the same compound?
Answer: 2.06 µM [falling, single point]

Question: Which cell number change does the source give for `CCc1cccc(C)c1NC(=O)COC(=O)c1c2c(nc3ccccc13)/C(=C\c1cccs1)CCC2` here?
Answer: -8.31%

Question: And the AC50 [2]?
Answer: 20.6 µM [falling, single point]

Question: Which AC50 [1] does the source give for `CNc1nnc(-c2cccc(N(C)C)c2)s1` here?
Answer: 6.51 µM [rising, single point]

Question: For `Cn1c(C(=O)N2CCN(C3CCCCC3)CC2)cc2c(=O)n(C)c3ccccc3c21`, which cell number change is on record?
Answer: 1.15%

Question: For `Cc1ccc(C(C)C)c(OCCCN(C)Cc2ccccc2)c1`, which cell number change is on record?
Answer: -72.1%

Question: And the AC50 [1]?
Answer: 20.6 µM [falling, partial curve]

Question: What about the AC50 [2] of the same compound?
Answer: 16.4 µM [falling, partial curve]

Question: Which results are given for `COc1ccccc1CNc1ncccc1[N+](=O)[O-]`?
Answer: cell number change: 25.9%; AC50 [2]: 1.3 µM [rising, full curve, poor fit]

Question: With `O=C(Nc1cccc(Cl)c1)C1COc2ccccc2O1` (stereo not given) as the compound, how does the cell number change read?
Answer: -23.1%

Question: Which results are given for `COC(=O)CN1C(=O)S/C(=C/c2ccc(N3CCCCC3)o2)C1=O`?
Answer: cell number change: -15.3%; AC50 [2]: 20.6 µM [falling, partial curve, poor fit]

Question: With `Nc1nc(N)nc(COc2ccccc2)n1` as the compound, how does the cell number change read?
Answer: 8.65%

Question: What about the AC50 [1] of the same compound?
Answer: 0.259 µM [rising, partial curve, poor fit]

Question: With `CC(c1ccco1)N(C(=O)c1ccc(C#N)cc1)c1ccccn1` (stereo not given) as the compound, how does the cell number change read?
Answer: 2.25%

Question: What about the AC50 [1] of the same compound?
Answer: 4.11 µM [falling, single point]

Question: And the AC50 [2]?
Answer: 18.4 µM [falling, partial curve]

Question: For `NC(=O)C(c1ccc(F)cc1)c1ccc(C(=O)c2ccccc2)cc1` (stereo not given), which cell number change is on record?
Answer: -20.7%

Question: And the AC50 [2]?
Answer: 7.31 µM [falling, single point]
